Assay results as given in patent US7629379B2, “Substituted phosphonate fluorescent sensors and use thereof” (Queen Mary & Westfield College, priority 2003, dated 2009).
Where a name gives a salt, the structure may show the parent alone. Read-outs that look alike come from different tables or passages of the source.

Assay: Fluorescent coating of hydroxyapatite

## O=P(O)(O)Cn1c2ccccc2c2ccccc21 [Example 7, N-carbazoylymethylphosphonic acid]
Aqueous solution 100 μM applied with warm air drying, powder or annealed hydroxyapatite, washed with water
  fluorescent layer on hydroxyapatite: A fluorescent layer had been deposited on the surface

## O=P([O-])([O-])Cn1c2ccccc2c2ccccc21.[Na+].[Na+] [di sodium N-carbazolylmethylphosphonate]
  fluorescent coating on hydroxyapatite: fluorescent coating had been applied

## O=P(O)(O)COc1ccc(-c2c3nc(c(-c4ccc(OCP(=O)(O)O)cc4)c4ccc([nH]4)c(-c4ccc(OCP(=O)(O)O)cc4)c4nc(c(-c5ccc(OCP(=O)(O)O)cc5)c5ccc2[nH]5)C=C4)C=C3)cc1 [octa-sodium salt of Example 29, 5, 10, 15, 20-tetraphenyl-21H, 24H porphine-p,p′,p″,p′″tetra oxymethanophosphonic acid]
5 ml, 1 mM solution, hydroxyapatite 100 mg, room temperature 10 h, washed with water
  fluorescent coating on hydroxyapatite: fluorescent coating had been applied
